No constants are given. Whether binding was seen depends on the method and setting. In cells and extracts the contact can be indirect. Here binding means that the protein was enriched with, or labelled near, the bait; the list need not be complete. Sequences can lack the tags named with a protein.
T1: LIN-61::GFP (C. elegans) (UniProt B2D6M2)
T1 sequence: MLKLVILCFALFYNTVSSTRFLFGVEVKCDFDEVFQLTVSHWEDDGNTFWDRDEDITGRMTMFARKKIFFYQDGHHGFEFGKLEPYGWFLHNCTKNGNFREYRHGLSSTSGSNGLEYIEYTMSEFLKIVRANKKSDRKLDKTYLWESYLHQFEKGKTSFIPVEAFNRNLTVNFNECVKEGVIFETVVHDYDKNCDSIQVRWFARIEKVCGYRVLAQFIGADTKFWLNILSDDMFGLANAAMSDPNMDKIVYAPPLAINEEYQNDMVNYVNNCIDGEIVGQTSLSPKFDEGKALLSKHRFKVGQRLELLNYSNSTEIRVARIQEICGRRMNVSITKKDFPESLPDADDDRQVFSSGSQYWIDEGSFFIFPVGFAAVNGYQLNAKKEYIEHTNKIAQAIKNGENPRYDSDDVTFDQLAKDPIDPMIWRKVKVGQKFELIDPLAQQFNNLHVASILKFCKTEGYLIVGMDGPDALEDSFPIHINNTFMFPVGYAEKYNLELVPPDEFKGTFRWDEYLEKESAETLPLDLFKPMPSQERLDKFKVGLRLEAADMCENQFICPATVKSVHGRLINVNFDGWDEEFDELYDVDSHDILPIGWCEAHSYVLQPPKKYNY

By UniProt entry, the sequences of proteins in these tests, tags left out.
UniProt Q11107: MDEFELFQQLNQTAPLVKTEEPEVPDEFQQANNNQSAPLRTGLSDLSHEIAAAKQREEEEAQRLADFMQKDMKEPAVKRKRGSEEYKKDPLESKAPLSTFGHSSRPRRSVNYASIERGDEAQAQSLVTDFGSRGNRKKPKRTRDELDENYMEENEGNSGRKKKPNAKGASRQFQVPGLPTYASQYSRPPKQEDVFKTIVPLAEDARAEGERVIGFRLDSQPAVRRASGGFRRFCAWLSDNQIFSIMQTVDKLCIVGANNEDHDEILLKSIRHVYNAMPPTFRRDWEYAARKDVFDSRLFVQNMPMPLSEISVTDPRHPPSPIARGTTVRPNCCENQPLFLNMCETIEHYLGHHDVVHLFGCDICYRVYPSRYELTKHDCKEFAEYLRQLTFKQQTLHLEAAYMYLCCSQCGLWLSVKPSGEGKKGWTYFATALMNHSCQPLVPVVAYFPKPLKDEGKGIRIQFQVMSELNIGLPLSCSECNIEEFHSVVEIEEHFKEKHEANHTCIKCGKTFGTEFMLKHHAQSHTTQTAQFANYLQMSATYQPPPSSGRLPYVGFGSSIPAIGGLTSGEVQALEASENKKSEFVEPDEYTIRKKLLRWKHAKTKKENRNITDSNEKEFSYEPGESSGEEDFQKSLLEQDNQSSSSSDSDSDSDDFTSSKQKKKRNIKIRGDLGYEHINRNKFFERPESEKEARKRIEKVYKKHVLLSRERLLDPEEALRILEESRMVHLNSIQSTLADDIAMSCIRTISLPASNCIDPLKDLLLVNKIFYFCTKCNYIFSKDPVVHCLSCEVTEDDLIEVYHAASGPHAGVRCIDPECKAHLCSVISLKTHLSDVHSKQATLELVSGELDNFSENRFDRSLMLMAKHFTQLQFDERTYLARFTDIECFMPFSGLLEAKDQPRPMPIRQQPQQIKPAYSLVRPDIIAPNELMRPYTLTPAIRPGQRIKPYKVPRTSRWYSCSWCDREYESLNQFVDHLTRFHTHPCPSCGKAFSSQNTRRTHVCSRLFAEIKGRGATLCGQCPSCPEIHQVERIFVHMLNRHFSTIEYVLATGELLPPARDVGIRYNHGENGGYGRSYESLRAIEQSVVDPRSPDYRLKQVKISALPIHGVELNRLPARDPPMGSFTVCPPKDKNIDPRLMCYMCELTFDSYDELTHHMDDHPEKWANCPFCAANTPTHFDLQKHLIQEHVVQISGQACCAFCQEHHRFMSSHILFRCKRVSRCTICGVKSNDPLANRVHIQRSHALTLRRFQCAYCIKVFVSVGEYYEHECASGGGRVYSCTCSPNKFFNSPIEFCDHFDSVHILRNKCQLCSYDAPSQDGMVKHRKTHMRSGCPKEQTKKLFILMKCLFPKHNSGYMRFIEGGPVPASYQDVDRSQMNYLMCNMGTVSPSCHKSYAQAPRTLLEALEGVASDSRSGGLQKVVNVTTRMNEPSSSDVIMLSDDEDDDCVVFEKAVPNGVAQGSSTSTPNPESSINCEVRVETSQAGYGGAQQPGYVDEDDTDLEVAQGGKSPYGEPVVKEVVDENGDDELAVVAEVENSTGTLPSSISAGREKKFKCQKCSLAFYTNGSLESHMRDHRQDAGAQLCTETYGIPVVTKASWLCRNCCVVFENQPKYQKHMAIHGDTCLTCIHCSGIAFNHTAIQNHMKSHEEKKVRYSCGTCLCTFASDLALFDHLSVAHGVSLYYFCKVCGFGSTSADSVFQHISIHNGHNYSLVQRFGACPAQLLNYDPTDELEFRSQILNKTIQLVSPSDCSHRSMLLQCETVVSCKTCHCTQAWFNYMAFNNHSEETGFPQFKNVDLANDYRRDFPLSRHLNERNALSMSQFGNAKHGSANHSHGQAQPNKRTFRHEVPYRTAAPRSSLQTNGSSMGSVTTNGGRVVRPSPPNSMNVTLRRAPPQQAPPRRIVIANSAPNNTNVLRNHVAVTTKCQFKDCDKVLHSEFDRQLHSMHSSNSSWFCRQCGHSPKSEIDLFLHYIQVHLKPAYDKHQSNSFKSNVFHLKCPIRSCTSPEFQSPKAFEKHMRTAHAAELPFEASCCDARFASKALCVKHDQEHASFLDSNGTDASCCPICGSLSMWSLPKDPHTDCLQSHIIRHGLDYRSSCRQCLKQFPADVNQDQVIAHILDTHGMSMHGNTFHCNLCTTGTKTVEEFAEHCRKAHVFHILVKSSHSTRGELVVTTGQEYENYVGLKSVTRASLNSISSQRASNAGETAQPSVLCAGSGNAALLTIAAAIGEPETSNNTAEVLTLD

B1: HPL-2 (protein, UniProt G5EDE2 1-175)
chain: MSSKSTKRAKIEDPKDNVFMVEKVLDKRTGKAGRDEFLIQWQGFPESDSSWEPRENLQCVEMLDEFEREFSKREKPIRKRHSQKPEPSEDQADPEEDKDEKKETNQNDKFSLEGKQLKCIVGLTKGPGELHFLCKFSDDTARLLPAKEVNSRYPSQVIRYYESKLTIQDPKADEL

Target: T1, LIN-61::GFP (C. elegans)
Experiment: affinity purification with mass spectrometry; large scale anti-GFP (clone 3E6 on protein A agarose) immunoprecipitation from lysate of embryos expressing LIN-61::GFP; 50 mM HEPES pH 7.6, 140 mM KCl, 10 mM NaCl, 1 mM MgCl2, 1 mM EDTA, 10% glycerol, 0.1% beta-octylglucoside; 4C, 2 hours; parallel IP from untagged control embryos

Molecule	binding
LIN-13 (from UniProt Q11107 1-2248)	binds
B1	binds

Source: publication PMC3297578
